Data reported in paper PMC8556400.
These are yes or no findings as the source states them, for the method shown. Binding seen in cells or lysates may run through a third protein. Some binding calls cover weakened binding; strength is not graded here.

Biological target: T1, Matrin-3 (Matr3), endogenous mouse (mouse (endogenous in MEL)) (UniProt Q8K310)
T1 sequence: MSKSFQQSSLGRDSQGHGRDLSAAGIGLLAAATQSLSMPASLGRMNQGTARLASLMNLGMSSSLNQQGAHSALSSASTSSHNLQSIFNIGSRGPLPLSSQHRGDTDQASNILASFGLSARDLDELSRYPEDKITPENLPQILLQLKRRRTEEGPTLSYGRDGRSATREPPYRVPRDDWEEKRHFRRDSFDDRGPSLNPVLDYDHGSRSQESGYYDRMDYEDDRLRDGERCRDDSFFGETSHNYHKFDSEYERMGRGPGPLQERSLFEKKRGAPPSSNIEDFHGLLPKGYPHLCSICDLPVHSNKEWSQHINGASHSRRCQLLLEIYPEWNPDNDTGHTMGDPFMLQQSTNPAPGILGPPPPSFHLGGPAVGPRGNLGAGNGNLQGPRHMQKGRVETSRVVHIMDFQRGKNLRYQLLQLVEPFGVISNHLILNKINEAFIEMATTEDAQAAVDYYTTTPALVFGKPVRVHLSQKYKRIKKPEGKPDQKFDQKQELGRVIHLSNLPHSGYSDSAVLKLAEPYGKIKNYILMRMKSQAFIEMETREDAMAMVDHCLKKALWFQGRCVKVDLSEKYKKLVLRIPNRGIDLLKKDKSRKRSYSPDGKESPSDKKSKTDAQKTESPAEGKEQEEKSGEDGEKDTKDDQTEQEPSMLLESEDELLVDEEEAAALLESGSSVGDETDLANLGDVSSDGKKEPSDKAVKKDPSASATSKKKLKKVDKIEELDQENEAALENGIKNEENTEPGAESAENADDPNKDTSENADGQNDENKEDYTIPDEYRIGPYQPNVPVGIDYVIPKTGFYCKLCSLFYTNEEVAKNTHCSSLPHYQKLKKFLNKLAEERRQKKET
Assay: co-IP; MEL nuclear extracts incubated with antibody to endogenous Matr3 overnight at 4 °C; Protein G/A magnetic beads; IP buffer 20 mM HEPES pH 7.9, 25% glycerol, 200 mM NaCl, 1.5 mM MgCl2, 0.2 mM EDTA, 0.02% NP-40; Western blot

binding: binds
B1: CCCTC-binding factor (CTCF) (protein, UniProt Q61164 1-736)
chain: MEGEAVEAIVEESETFIKGKERKTYQRRREGGQEEDACHLPQNQTDGGEVVQDVNSSVQMVMMEQLDPTLLQMKTEVMEGTVAPEAEAAVDDTQIITLQVVNMEEQPINIGELQLVQVPVPVTVPVATTSVEELQGAYENEVSKEGLAESEPMICHTLPLPEGFQVVKVGANGEVETLEQGELPPQEDSSWQKDPDYQPPAKKTKKTKKSKLRYTEEGKDVDVSVYDFEEEQQEGLLSEVNAEKVVGNMKPPKPTKIKKKGVKKTFQCELCSYTCPRRSNLDRHMKSHTDERPHKCHLCGRAFRTVTLLRNHLNTHTGTRPHKCPDCDMAFVTSGELVRHRRYKHTHEKPFKCSMCDYASVEVSKLKRHIRSHTGERPFQCSLCSYASRDTYKLKRHMRTHSGEKPYECYICHARFTQSGTMKMHILQKHTENVAKFHCPHCDTVIARKSDLGVHLRKQHSYIEQGKKCRYCDAVFHERYALIQHQKSHKNEKRFKCDQCDYACRQERHMIMHKRTHTGEKPYACSHCDKTFRQKQLLDMHFKRYHDPNFVPAAFVCSKCGKTFTRRNTMARHADNCAGPDGVEGENGGETKKSKRGRKRKMRSKKEDSSDSEENAEPDLDDNEEEEEPAVEIEPEPEPQPQPPPPPQPVAPAPPPAKKRRGRPPGRTNQPKQNQPTAIIQVEDQNTGAIENIIVEVKKEPDAEPAEGEEEEAQAATTDAPNGDLTPEMILSMMDR
